Measurements taken from paper PMC10784588.
No constants are given. Whether binding was seen depends on the method and setting. Binding seen in cells or lysates may run through a third protein. Some results given as binding are weak or reduced against the parent protein; the word gives no strength. Tags and fused reporters may be left off the sequences shown.

The chains behind the UniProt entries cited, without tags or fusion partners.
UniProt Q4G0F5: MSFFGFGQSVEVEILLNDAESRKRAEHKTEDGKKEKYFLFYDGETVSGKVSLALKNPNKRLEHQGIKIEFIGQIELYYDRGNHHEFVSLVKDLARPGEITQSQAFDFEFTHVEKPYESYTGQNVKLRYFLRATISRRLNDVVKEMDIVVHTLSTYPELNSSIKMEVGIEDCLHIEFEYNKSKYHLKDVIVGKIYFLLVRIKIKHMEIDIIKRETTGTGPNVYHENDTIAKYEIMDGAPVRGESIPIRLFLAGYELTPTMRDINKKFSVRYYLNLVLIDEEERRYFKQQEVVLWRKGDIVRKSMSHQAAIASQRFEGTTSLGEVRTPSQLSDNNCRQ

Target: T1, OXR1-GFP (human Oxidation Resistance 1, Origene tagged ORF clone) (human) (UniProt Q8N573)
T1 sequence: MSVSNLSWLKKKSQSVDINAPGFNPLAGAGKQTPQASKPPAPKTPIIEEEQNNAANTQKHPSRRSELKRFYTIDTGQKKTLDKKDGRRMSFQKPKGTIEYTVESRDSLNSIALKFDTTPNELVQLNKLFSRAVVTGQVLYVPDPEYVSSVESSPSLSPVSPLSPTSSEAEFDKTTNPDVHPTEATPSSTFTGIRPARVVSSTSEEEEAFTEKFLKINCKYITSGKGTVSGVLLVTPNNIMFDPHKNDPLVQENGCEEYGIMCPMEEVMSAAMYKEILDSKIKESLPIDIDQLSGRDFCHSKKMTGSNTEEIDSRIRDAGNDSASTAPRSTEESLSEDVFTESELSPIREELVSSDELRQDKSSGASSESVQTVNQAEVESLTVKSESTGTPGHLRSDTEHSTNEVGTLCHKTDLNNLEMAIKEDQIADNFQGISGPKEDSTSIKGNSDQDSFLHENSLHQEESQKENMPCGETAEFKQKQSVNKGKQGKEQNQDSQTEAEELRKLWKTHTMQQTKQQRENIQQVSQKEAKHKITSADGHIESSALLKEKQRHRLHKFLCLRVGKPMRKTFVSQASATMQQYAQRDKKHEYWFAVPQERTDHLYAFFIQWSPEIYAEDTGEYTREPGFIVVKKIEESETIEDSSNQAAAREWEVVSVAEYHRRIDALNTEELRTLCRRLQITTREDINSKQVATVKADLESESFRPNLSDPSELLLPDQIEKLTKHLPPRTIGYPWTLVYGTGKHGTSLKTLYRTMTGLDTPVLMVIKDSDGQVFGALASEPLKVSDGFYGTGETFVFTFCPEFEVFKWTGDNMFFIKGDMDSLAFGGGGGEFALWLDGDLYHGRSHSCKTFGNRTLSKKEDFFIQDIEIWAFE
Test: co-IP; lysates (MPER lysis buffer with protease inhibitors, sonicated) of human fibroblasts transduced with lentivirus for OXR1-GFP or GFP alone; pre-cleared with protein G beads, anti-GFP antibody (sc-9996) overnight at 4 C, protein G beads 4 h at 4 C, 3 washes with lysis buffer; western blot

Row | Substance | binding
1 | VPS26B (from UniProt Q4G0F5 1-336) | binds
2 | VPS26A (from UniProt O75436 1-327) | binds
